This note sets out measurements from article PMC6561928.

Protein sequences, listed by entry. Tags and fused reporters are not part of them.
UniProt Q62432: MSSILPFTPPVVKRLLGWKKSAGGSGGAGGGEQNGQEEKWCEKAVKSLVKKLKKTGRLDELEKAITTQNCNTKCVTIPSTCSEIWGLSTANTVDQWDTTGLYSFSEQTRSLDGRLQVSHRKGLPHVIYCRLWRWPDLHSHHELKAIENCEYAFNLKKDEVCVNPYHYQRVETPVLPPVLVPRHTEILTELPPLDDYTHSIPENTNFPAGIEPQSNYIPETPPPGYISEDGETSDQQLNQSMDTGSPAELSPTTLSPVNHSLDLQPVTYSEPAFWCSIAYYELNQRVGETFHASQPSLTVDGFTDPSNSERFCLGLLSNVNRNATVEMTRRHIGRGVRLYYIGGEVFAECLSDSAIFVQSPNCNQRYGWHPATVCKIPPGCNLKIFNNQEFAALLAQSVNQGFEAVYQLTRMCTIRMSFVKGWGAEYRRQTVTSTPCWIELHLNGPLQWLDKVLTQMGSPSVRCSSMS
UniProt Q8BUN5: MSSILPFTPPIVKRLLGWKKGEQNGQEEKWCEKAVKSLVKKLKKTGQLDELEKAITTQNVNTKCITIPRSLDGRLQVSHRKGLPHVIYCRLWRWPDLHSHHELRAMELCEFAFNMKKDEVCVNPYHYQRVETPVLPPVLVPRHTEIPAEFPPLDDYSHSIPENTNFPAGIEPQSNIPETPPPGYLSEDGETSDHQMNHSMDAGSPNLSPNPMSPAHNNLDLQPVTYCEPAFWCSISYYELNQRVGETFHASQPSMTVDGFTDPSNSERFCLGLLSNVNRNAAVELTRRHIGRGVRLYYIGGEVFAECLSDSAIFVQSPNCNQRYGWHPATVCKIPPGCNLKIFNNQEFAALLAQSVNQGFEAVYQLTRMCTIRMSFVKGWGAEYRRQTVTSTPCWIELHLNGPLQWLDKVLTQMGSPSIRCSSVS

What all share (assay): co-IP; lysates of primary mouse hepatocytes, with or without TGF-β1 (10 ng/mL) for 6 h; incubated with antibodies against Smad3, p-Smad3 or p-Smad2 overnight, protein A/G beads for 2 h; immunoblot with anti-Ets-1
The target in test [1] is phosphorylated Smad2 (p-Smad2) (mouse (endogenous in primary hepatocytes)) (UniProt Q62432).
Test [2] concerns the target mothers against decapentaplegic homolog 3 (Smad3) (mouse (endogenous in primary hepatocytes)) (UniProt Q8BUN5).
Test [3] concerns the target phosphorylated Smad3 (p-Smad3) (mouse (endogenous in primary hepatocytes)) (UniProt Q8BUN5).

Results are given in words; binding and its absence hold for the method and conditions named. In cells and extracts the contact can be indirect. Some binding calls cover weakened binding; strength is not graded here.

B1: v-ets avian erythroblastosis virus E26 oncogene homolog 1 (Ets-1) (protein, UniProt P27577 1-440)
chain: MKAAVDLKPTLTIIKTEKVDLELFPSPDMECADVPLLTPSSKEMMSQALKATFSGFTKEQQRLGIPKDPRQWTETHVRDWVMWAVNEFSLKGVDFQKFCMSGAALCALGKECFLELAPDFVGDILWEHLEILQKEDVKPYQVNGANPTYPESCYTSDYFISYGIEHAQCVPPSEFSEPSFITESYQTLHPISSEELLSLKYENDYPSVILQDPLQTDTLQTDYFAIKQEVLTPDNMCLGRASRGKLGGQDSFESVESYDSCDRLTQSWSSQSSFNSLQRVPSYDSFDYEDYPAALPNHKPKGTFKDYVRDRADLNKDKPVIPAAALAGYTGSGPIQLWQFLLELLTDKSCQSFISWTGDGWEFKLSDPDEVARRWGKRKNKPKMNYEKLSRGLRYYYDKNIIHKTAGKRYVYRFVCDLQSLLGYTPEELHAMLDVKPDAD
Turning to B1, the binding entry in test [1] is “no binding”; in test [2], “binds”; in test [3] it was “binds”.
